Values joined by “and” are separate entries in the source; they are usually repeats but may differ in a detail not shown here. Identical values can stand only once. Screen size: about 400,000 compounds; about 13,000 (3.2%) were called active. The inconclusive results got no clear call from the source; some entries with a clear call stand among them for comparison. Calls come from the whole dose curve; as a rule, active = well fitted cell-killing curve with a large enough effect; inconclusive = small, poorly fitted or top-dose-only effect, or effect the other way; inactive = flat fitted curve, though single readings scatter. Where the call is inconclusive, the potency comes from a doubtful curve fit.
Test: qHTS assay for MDR1-selective chemotherapeutics: Primary screen using the drug-selected MDR subline cells KB-V1; note: nearly all actives have a fitted effect of over 60% in size
Conditions: KB-V1 MDR cells viability, CellTiter-Glo, 72 h; activity change, negative = cytotoxicity: at 46.1 µM (top of the series)
In short: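 Readout: CellTiter-Glo luminescence, 10 min after addition. Cells: KB-V1 MDR subline, 72 h at 37 degrees C with compound. Analysis: corrected, normalized data fitted to concentration-effect curves.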
% is set by controls: 0 for no effect and ±100 for the full control effect; potency is the fitted concentration of half-maximal effect.

| Structure (SMILES) | Potency | activity change, negative = cytotoxicity |
| --- | --- | --- |
| CC(=O)c1c(N2CCOCC2)nc(=S)n(Cc2ccccc2)c1C | inconclusive: 23.1 µM [cytotoxic, single point] | – |
| Cc1ccccc1Cn1nnc2c1C(=O)c1ccccc1C2=O | active: 13 µM | – |
| COc1ccc(CNC(=O)CCS(=O)(=O)c2cc3c(cc2Cl)NC(=O)CO3)cc1 | – | inconclusive: 16.9% |
| COc1cccc(CNC(=O)[C@@H]2CCCN2C(=O)[C@H]2CCCCN2S(=O)(=O)c2ccc(OC)c(C)c2)c1 | inconclusive: 7.31 µM [cytotoxic, partial curve] | – |
| CC(C)c1ccc(N(C(=O)c2ccco2)C(C(=O)NC2CCCC2)c2cccnc2)cc1 (centres undefined) | inconclusive: 18.4 µM [cytotoxic, single point] | – |
| CCCCn1c(SCC(=O)Nc2ccc3c(c2)OCO3)nc2c1c(=O)n(C)c(=O)n2C | active: 5.8 µM | – |
| Cc1ccc(Cc2nnc(SCC(=O)Nc3ccccc3)n(N)c2=O)cc1 | inactive | – |
| CC1CCN(Cc2c(C(=O)N/N=C/c3cc(Br)ccc3O)nnn2-c2nonc2N)CC1 | inconclusive: 5.17 µM [cytotoxic, full curve, poor fit] | – |
| Cc1cc(C(=O)COc2cccnc2[N+](=O)[O-])c(C)n1Cc1cccs1 | inconclusive: 20.6 µM [cytotoxic, partial curve] | – |
| COc1ccccc1C(=O)O/N=C(/c1ccncc1)c1ccc([N+](=O)[O-])cc1 | inactive | – |
| N#CC(=C(O)COC(=O)CCCNC(=O)c1ccc(Cl)cc1)c1nc2ccccc2[nH]1 | inactive | – |
| c1cc2c(cc1CNc1ccc(N3CCOCC3)cc1)OCO2 | inactive | – |
| CC(C)C(NC(=O)CSc1ccc(Cl)cc1)C(C)C | inconclusive: 29.1 µM [cytotoxic, single point] | – |
| COc1ccc(CN([C@H](CO)CC(C)C)S(=O)(=O)N(Cc2ccccc2)[C@H](CO)CC(C)C)cc1 | active: 16.4 µM and inconclusive: 18.4 µM [cytotoxic, single point] | – |
| C=CCc1c(C)nc(SC)nc1Nc1ccc(C(C)=O)cc1 | active: 11.6 µM | – |
| O=C(c1ccccc1F)n1c2c(c3ccccc31)CCCC2 | inconclusive: 20.6 µM [cytotoxic, single point] | – |
| COc1cc(C(=O)OC(C)C(=O)Nc2ccc3c(c2)OCCO3)cc(OC)c1OC (centres undefined) | inconclusive: 29.1 µM [cytotoxic, single point] | – |
| Clc1cccc(Cc2c(-c3ccco3)nc3ccc(Br)cn23)c1 | inactive | – |
| CN1C(C)(C)CC(=NO)CC1(C)C | inactive | – |
| O=C(/C=C/c1ccc(Cl)cc1)c1ccc([N+](=O)[O-])o1 | inconclusive: 29.1 µM [rising, single point] | – |
| CC(CCc1ccccc1)NC(=O)CN1CCN(c2ccccc2)CC1 (centres undefined) | inconclusive: 23.1 µM [rising, single point] | – |
| O=C(Nc1ccc2c(c1)CCCN2C(=O)c1cccs1)c1ccccc1C(F)(F)F | inconclusive: 4.11 µM [cytotoxic, full curve] | – |
| COc1ccc2nc(-c3ccccc3)cc(OC)c2c1 | inconclusive: 29.1 µM [cytotoxic, single point] | – |
| C[C@H](NC(=O)c1ccco1)C(=O)Nc1nc(-c2ccccn2)cs1 | active: 4.11 µM | – |
| Cc1ccc(F)cc1NC(=O)Nc1cc(C(C)(C)C)nn1C | inactive | – |

| Structure (SMILES) | Potency | activity change, negative = cytotoxicity |
| --- | --- | --- |
| N#Cc1ccc(N/N=C/c2cn(-c3ccccc3)nc2-c2ccccc2)c([N+](=O)[O-])c1 | inconclusive: 18.4 µM [cytotoxic, single point] | – |
| O=C(NNc1ccccc1C(F)(F)F)c1cccs1 | – | inconclusive: 45.5% |
| O=C(NC(O)C(=O)c1ccccc1)c1ccc(F)cc1 (centres undefined) | inactive | – |
| Cc1nc([N+](=O)[O-])c(Br)n1CC(=O)c1ccc(Br)cc1 | inconclusive: 29.1 µM [cytotoxic, single point] | – |
| Brc1ccccc1-c1nnc(CSc2nnc3sc4ccccc4n23)o1 | inconclusive: 10.3 µM [cytotoxic, partial curve, poor fit] | – |
| COc1cc(C(=O)NCCCNc2nc3cc(C)cc(C)c3cc2C#N)cc(OC)c1OC | active: 5.8 µM | – |
| CCOC(=O)C1=C(CSc2nc(CC)c(C)cc2C#N)OC(N)=C(C#N)C1c1ccccc1 (centres undefined) | inactive | – |
| CCN1C(=O)N(CC)C(O)(c2ccccc2)C1(O)c1ccccc1 (centres undefined) | inconclusive: 25.9 µM [rising, single point] | – |
| CC(=O)c1c(-c2ccc(Cl)cc2)c2ccccc2[nH]c1=O | inconclusive: 2.59 µM [rising, full curve, poor fit] | – |
| COc1ccc(-c2nc(CN3CCCC(C(=O)NC4CCCC4)C3)c(C)o2)cc1 (centres undefined) | inconclusive: 29.1 µM [cytotoxic, single point] | – |
| Cc1csc2nc(CCNS(=O)(=O)c3cccs3)cn12 | inconclusive: 13 µM [rising, single point] | – |
| C/C(=N\NC(=O)c1cc(-c2cccnc2)nc2ccccc12)c1ccc(O)cc1O | inconclusive: 2.59 µM [cytotoxic, full curve] | – |
| CC12CC(NC(=O)N1Cc1ccccc1)c1ccccc1O2 (centres undefined) | inconclusive: 20.6 µM [cytotoxic, single point] | – |
| COc1ccccc1Cn1c(=S)[nH]c2cc(C(=O)N3CCN(c4ccccc4OC)CC3)ccc2c1=O | inconclusive: 3.66 µM [rising, partial curve, poor fit] | – |
| CNc1c([N+](=O)[O-])cnn1-c1ccc(Cl)cc1 | inconclusive: 23.1 µM [cytotoxic, single point] | – |
| CN(C)C(=O)N1CCN(C(=O)N2CCOCC2)CC1 | inconclusive: 9.2 µM [rising, partial curve] | – |
| COc1ccc(Br)cc1CNCc1c(C(=O)O)c(C)n(Cc2ccccc2C)c1C | inconclusive: 29.1 µM [rising, single point] | – |
| O=C(Cn1c(=O)[nH]c2ccccc2c1=O)Nc1ccc2c(c1)OCO2 | inconclusive: 20.6 µM [rising, single point] | – |
| Cc1cc(NC(=O)CS(=O)(=O)c2cn(Cc3cccc(Cl)c3)c3ccccc23)no1 | inconclusive: 20.6 µM [cytotoxic, partial curve, poor fit] | – |
| O=C(O)CCn1c(=O)[nH]c(=O)n(CCC(=O)O)c1=O | inactive | – |
| CCOC(=O)c1c(-c2ccccc2)csc1NC(=O)CSc1nnnn1C | inactive | – |
| CCC(C)N(C(=O)c1csnn1)C(C(=O)NC1CCCC1)c1c(F)cccc1Cl (centres undefined) | inconclusive: 8.2 µM [cytotoxic, partial curve] | – |
| COCCCn1cnc2c(c1=O)c1nc3ccccc3nc1n2CCc1ccccc1 | inconclusive: 29.1 µM [cytotoxic, single point] | – |
| Cc1nnc(C)c2c(C)n(-c3ccccc3N)c(C)c12 | inactive | – |
| COc1cc(/C=N\Nc2nc3ccccc3o2)cc(OC)c1OC | inconclusive: 9.2 µM [cytotoxic, partial curve] | – |

| Structure (SMILES) | Potency | activity change, negative = cytotoxicity |
| --- | --- | --- |
| COCC1CCN(C(=O)c2cc(COc3ccc(OC)cc3Cl)on2)C1 (centres undefined) | inconclusive: 16.4 µM [cytotoxic, single point] | – |
| CCOc1ccc(NC(=O)CN(C)C(=O)c2cc(-c3ccc(OC)cc3)nc3ccccc23)cc1OCC | inconclusive: 18.4 µM [cytotoxic, single point] | – |
| COc1ccccc1N1CCN(C(=O)c2cc(-c3ccccc3)on2)CC1 | – | inconclusive: -31.8% [cytotoxic] |
| COC(=O)c1ccc(/C(O)=C(\C#N)c2nc3ccccc3s2)cc1 | active: 8.2 µM | – |
| O=C(COc1ccc(Br)cc1Br)NC1CCS(=O)(=O)C1 (centres undefined) | inactive | – |
| CCOC(=O)/C(=N/Nc1ccc(C)cc1)S(=O)(=O)c1ccc(Cl)cc1 | active: 16.4 µM | – |
| CC(Oc1ccc(C#N)cc1)C(=O)N1CC=C(c2ccccc2)CC1 (centres undefined) | active: 13 µM | – |
| COc1ccc(-c2nc(-c3ccccc3OC)no2)cc1OC | active: 6.51 µM | – |
| CCCCCOC(=O)CSc1nc2sc3c(c2c(=O)n1Cc1ccccc1)CC(C)(CC)OC3 (centres undefined) | inactive | – |
| Cc1cc2c(cc1S(=O)(=O)CCC(=O)N1CCN(c3ccccc3)CC1)OCC(=O)N2 | inactive | – |
| Cc1ccccc1OCC(=O)Nc1ccc2c(c1)n(C)c(=O)n2C | active: 13 µM | – |
| Cc1ccc(-n2c(=O)c3c4c(sc3n(CC(=O)C(C)(C)C)c2=O)CCCCC4)cc1C | inactive | – |
| COc1cc(C#N)ccc1OCC(=O)Nc1cccc(S(=O)(=O)N2CCCC2)c1 | active: 16.4 µM | – |
| Oc1c(CN2CCCC2)cc(COCc2ccccc2)c2cccnc12 | active: 20.6 µM | – |
| N#Cc1ccc(C(=O)N2CCCCC2c2cc(C(=O)NCc3ccccc3)no2)cc1 (centres undefined) | inactive | – |
| CCn1ncc(C2=NOC(C(=O)NCc3ccc(Cl)cc3)C2)c1C (centres undefined) | active: 4.61 µM | – |
| Cc1cc(SCC(=O)N/N=C/c2ccc(C(=O)O)cc2)nc2ccccc12 | – | inconclusive: 32.4% |
| COc1cccc(C(=O)NC2=NC(c3ccccc3F)CC(=O)N2)c1 (centres undefined) | inactive | – |
| COc1cc(Cl)c(NS(=O)(=O)c2cc3[nH]c(=O)c(=O)[nH]c3cc2C)c(OC)c1 | inconclusive: 29.1 µM [rising, single point] | – |
| CCOc1ccc2nc(/N=C/c3c(C)[nH]n(-c4ccccc4)c3=O)sc2c1 | inconclusive: 18.4 µM [cytotoxic, partial curve] | – |
| O=C(COc1ccc(Br)cc1)c1ccc2c(c1)CCCC2 | inactive | – |
| CN1CCN(C(=O)c2cc(COc3c(F)cccc3F)on2)CC1c1ccccc1 (centres undefined) | inactive | – |
| CCn1nc(C)c(C2C(C#N)=C(N)OC3=C2C(=O)CCC3)c1C (centres undefined) | inconclusive: 14.6 µM [rising, partial curve] | – |
| CO/N=C/c1ccc(N2CCN(C(=O)c3cccc(C(F)(F)F)c3)CC2)c([N+](=O)[O-])c1 | active: 10.3 µM | – |

Reference: PubChem BioAssay AID1347076 (National Center for Advancing Translational Sciences (NCATS), 2019)
